# Laboratory results published in PubChem BioAssay AID504467 (National Center for Advancing Translational Sciences (NCATS), 2011).
# Out of some 330,000 compounds screened, about 7,700 (2.3%) were called active. Inconclusive means that the source gave no clear call. Such entries were picked first, then a sample of the others. The call rests on the fitted dose curve; in most records, active means well fitted inhibition curve with a large enough effect; inconclusive means small, poorly fitted or top-dose-only effect, or effect the other way; inactive means flat fitted curve, though single readings scatter. A potency beside an inconclusive call is a rough fit, not a confirmed value.
# Test: qHTS screen for small molecules that inhibit ELG1-dependent DNA repair in human embryonic kidney (HEK293T) cells expressing luciferase-tagged ELG1; further: nearly all actives have a fitted effect of over 55% in size
# Settings: HEK293T ELG1-luciferase reporter, luminescence, 16 h, DNA damage induced by 5-fluorouridine; series mostly up to 46.1 µM
# Method in brief: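 Cells (2,000 per well) received 5-fluorouridine plus test compound or DMSO and were incubated 16 hr at 37 °C, 5% CO2. Luciferase activity was read by luminescence 30 min after ONE-Glo addition; signal suppression marked inhibition of damage-induced ELG1 function.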
# Potency means the concentration at half of the fitted maximal effect.
row,Structure (SMILES),Potency
1,c1ccc(-c2noc(CSc3nnc(Cc4cccs4)n3-c3ccccc3)n2)cc1,"inconclusive: 23.1 µM [inhibitor, partial curve, poor fit]"
2,O=C(COc1ccccc1)Nc1nc(-c2cccs2)cs1,inactive
3,CCCCn1c(N)c(N(CCOC)C(=O)COC(=O)CCOc2ccccc2C)c(=O)[nH]c1=O,"inconclusive: 5.17 µM [activator, partial curve, poor fit]"
4,Cc1cc(NC(=O)c2cccc(COc3ccc(Br)cc3)c2)no1,"inconclusive: 0.517 µM [activator, full curve]"
5,O=C(/C=C/c1ccncc1)c1ccc(NC(=O)c2ccccc2F)cc1,"inconclusive: 29.1 µM [inhibitor, single point]"
6,CC(=O)Nc1nc2ccccc2n1CCOc1ccccc1Cl,"inconclusive: 29.1 µM [inhibitor, single point]"
7,Cc1ccc(-c2noc(CC(c3ccccc3)c3ccccc3)n2)cc1,"inconclusive: 23.1 µM [inhibitor, single point]"
8,COc1ccc(Oc2cccc(Cl)c2CNC(=O)CCCC(=O)O)cc1,"inconclusive: 0.231 µM [inhibitor, single point]"
9,CCCCc1cc2ccccc2c(OCCN(C)C)n1,"inconclusive: 20.6 µM [activator, partial curve, poor fit]"
10,Cc1ccc(OCC(=O)N/N=C2\CC(=O)CC(C)(C)C2)c(Br)c1,inactive
11,CCN1CCc2nc(NC(=O)c3ccc4c(c3)OCCO4)sc2C1,"inconclusive: 18.4 µM [activator, partial curve]"
12,CC(=O)c1cn(CC(=O)Nc2ccccc2C)c2ccccc12,inactive
13,COc1ccc(-c2nnc(SC(C)C(=O)NC3CC3)o2)cc1 (stereo unspecified),"inconclusive: 29.1 µM [activator, single point]"
14,COc1ccccc1C(=O)Nc1ccnn1C1CCN(Cc2cnn(C)c2)CC1,"inconclusive: 18.3 µM [activator, single point]"
15,O=C(CC1CCCCC1)Nc1ccccc1-c1ccccc1,inactive
16,Fc1ccc(Nc2cccc3nccnc23)cc1,"inconclusive: 29.1 µM [activator, single point]"
17,O=C(O)c1ccccc1NCN1C(=O)C2CC=C(Cl)CC2C1=O (stereo unspecified),inactive
18,Cc1ccc(C)n1C1CCS(=O)(=O)C1 (stereo unspecified),inactive
19,COc1ccc(CCNC(=O)c2ccc3c(=O)n4c(nc3c2)CCC4)cc1OC,inactive
20,CCCCCC(C)NC(=S)NC(=O)c1cc(S(=O)(=O)N2CCOCC2)ccc1C (stereo unspecified),"inconclusive: 32.6 µM [inhibitor, single point]"
21,Nc1c(N(CCC2=CCCCC2)C(=O)Cc2ccc(F)cc2)c(=O)[nH]c(=O)n1Cc1ccccc1,inactive
22,O=C(Nc1cccnc1)c1ccc(N2CCCC2)c([N+](=O)[O-])c1,inactive
23,O=C(O)c1ccccc1C(=O)Nc1ccc(-c2csc(-c3ccccc3)n2)cc1,"inconclusive: 13 µM [activator, partial curve]"
24,S=C(c1ccc(-c2cccc(Cl)c2)o1)N1CCOCC1,"inconclusive: 9.2 µM [activator, partial curve]"

# 22 of these compounds in a different format:
row	Structure (SMILES)	Potency
1	c1ccc(-c2noc(CSc3nnc(Cc4cccs4)n3-c3ccccc3)n2)cc1	inconclusive: 23.1 µM [inhibitor, partial curve, poor fit]
2	O=C(COc1ccccc1)Nc1nc(-c2cccs2)cs1	inactive
3	CCCCn1c(N)c(N(CCOC)C(=O)COC(=O)CCOc2ccccc2C)c(=O)[nH]c1=O	inconclusive: 5.17 µM [activator, partial curve, poor fit]
4	Cc1cc(NC(=O)c2cccc(COc3ccc(Br)cc3)c2)no1	inconclusive: 0.517 µM [activator, full curve]
5	O=C(/C=C/c1ccncc1)c1ccc(NC(=O)c2ccccc2F)cc1	inconclusive: 29.1 µM [inhibitor, single point]
6	CC(=O)Nc1nc2ccccc2n1CCOc1ccccc1Cl	inconclusive: 29.1 µM [inhibitor, single point]
7	Cc1ccc(-c2noc(CC(c3ccccc3)c3ccccc3)n2)cc1	inconclusive: 23.1 µM [inhibitor, single point]
9	CCCCc1cc2ccccc2c(OCCN(C)C)n1	inconclusive: 20.6 µM [activator, partial curve, poor fit]
10	Cc1ccc(OCC(=O)N/N=C2\CC(=O)CC(C)(C)C2)c(Br)c1	inactive
11	CCN1CCc2nc(NC(=O)c3ccc4c(c3)OCCO4)sc2C1	inconclusive: 18.4 µM [activator, partial curve]
12	CC(=O)c1cn(CC(=O)Nc2ccccc2C)c2ccccc12	inactive
13	COc1ccc(-c2nnc(SC(C)C(=O)NC3CC3)o2)cc1 (stereo unspecified)	inconclusive: 29.1 µM [activator, single point]
14	COc1ccccc1C(=O)Nc1ccnn1C1CCN(Cc2cnn(C)c2)CC1	inconclusive: 18.3 µM [activator, single point]
15	O=C(CC1CCCCC1)Nc1ccccc1-c1ccccc1	inactive
17	O=C(O)c1ccccc1NCN1C(=O)C2CC=C(Cl)CC2C1=O (stereo unspecified)	inactive
18	Cc1ccc(C)n1C1CCS(=O)(=O)C1 (stereo unspecified)	inactive
19	COc1ccc(CCNC(=O)c2ccc3c(=O)n4c(nc3c2)CCC4)cc1OC	inactive
20	CCCCCC(C)NC(=S)NC(=O)c1cc(S(=O)(=O)N2CCOCC2)ccc1C (stereo unspecified)	inconclusive: 32.6 µM [inhibitor, single point]
21	Nc1c(N(CCC2=CCCCC2)C(=O)Cc2ccc(F)cc2)c(=O)[nH]c(=O)n1Cc1ccccc1	inactive
22	O=C(Nc1cccnc1)c1ccc(N2CCCC2)c([N+](=O)[O-])c1	inactive
23	O=C(O)c1ccccc1C(=O)Nc1ccc(-c2csc(-c3ccccc3)n2)cc1	inconclusive: 13 µM [activator, partial curve]
24	S=C(c1ccc(-c2cccc(Cl)c2)o1)N1CCOCC1	inconclusive: 9.2 µM [activator, partial curve]

# Continuation.

row,Structure (SMILES),Potency
1,O=C(Nc1nc(-c2ccccn2)cs1)c1cc2ccccc2o1,"inconclusive: 16.4 µM [inhibitor, partial curve]"
2,CN(C)c1c(-c2ccccc2)cc(-c2ccccc2)[nH]c1=O,"inconclusive: 29.1 µM [activator, single point]"
3,CC(=O)c1ccc(Oc2ncnc(N)c2[N+](=O)[O-])cc1,inactive
4,COc1ccc(-c2csc3nc(-c4ccccc4F)oc(=O)c23)cc1,"inconclusive: 29.1 µM [activator, single point]"
5,Cc1cc(NC(=O)c2cc(-c3cccc(OCC(C)C)c3)nc3ccccc23)no1,"inconclusive: 5.8 µM [inhibitor, partial curve]"
6,O=C(/C=C/c1cccs1)NC1CC1,"inconclusive: 16.4 µM [activator, partial curve, poor fit]"
7,O=C(Nc1nc2ccccc2s1)C1CC(=O)N(c2ccc(Br)cc2)C1 (stereo unspecified),"inconclusive: 20.6 µM [inhibitor, single point]"
8,O=C(Nc1nc(-c2ccccn2)cs1)C1CC(=O)N(c2ccc3c(c2)OCCO3)C1 (stereo unspecified),"inconclusive: 25.9 µM [inhibitor, partial curve, poor fit]"
9,CCN(CC)S(=O)(=O)c1ccc(N/N=C(\C)c2ccc(OC)cc2O)nc1,inactive
10,CCCCn1c(N)c(N(CCOC)C(=O)CCc2ccc(OC)cc2)c(=O)[nH]c1=O,inactive
11,O=[N+]([O-])c1ccc(/C=N/Nc2ccccn2)cc1,"inconclusive: 20.6 µM [activator, single point]"
12,COc1ccc(CNC(=O)c2ccc(CS(=O)Cc3cccc(Cl)c3)o2)cc1 (stereo unspecified),"inconclusive: 18.3 µM [inhibitor, single point]"
13,Cc1cc(C)nc(/N=C(\N)C2=C(O)CC(C)(C)CC2=O)n1,"inconclusive: 18.4 µM [activator, partial curve, poor fit]"
14,Cc1c(C(=O)O)oc2c(F)cccc12,inactive
15,COc1ccc(C(=O)NCC(c2cccs2)N2CCc3ccccc32)cc1OC (stereo unspecified),"inconclusive: 4.61 µM [inhibitor, single point]"
16,Cc1ccnc(NC(=O)CCC2CCCCC2)c1,"inconclusive: 9.2 µM [activator, partial curve]"
17,O=C(O)c1cccc(NC(=O)c2ccc3c(c2)C(=O)N(CC2CCCO2)C3=O)c1 (stereo unspecified),inactive
18,c1ccc(Oc2ccc(-c3ccnc4nc(N5CCOCC5)nn34)cc2)cc1,active: 18.3 µM
19,O=S(=O)(c1ccccc1)N1CCN(C(=S)Nc2ccc(F)cc2)CC1,inactive
20,Cc1ccc([N+](=O)[O-])cc1-c1[nH]c(-c2ccc(O)c(O)c2)nc1-c1ccccc1,"inconclusive: 25.9 µM [inhibitor, partial curve, poor fit]"
21,CCCn1cc(S(=O)(=O)c2ccc(C)cc2)c(=O)c2cc(OC)ccc21,inactive
22,CCOC(=O)CSc1nc2c(sc(=S)n2CCc2ccccc2)c(=O)n1Cc1ccco1,"inconclusive: 20.6 µM [inhibitor, partial curve, poor fit]"
23,Nc1nc2nn(-c3ccccc3)nc2c(=O)[nH]1,"inconclusive: 18.3 µM [activator, partial curve]"
24,CC(c1ccccc1)c1nnc(NC(=O)Nc2ccccc2F)s1 (stereo unspecified),"inconclusive: 29.1 µM [activator, single point]"

row,Structure (SMILES),Potency
1,CCC1(C)Cc2ccccc2-c2nc(NN)[nH]c(=O)c21 (stereo unspecified),inactive
2,CCOC(=O)c1c(NC(=O)C2C3C=CC(C3)C2C(=O)O)sc2c1CC(C)(C)OC2 (stereo unspecified),inactive
3,O=C(Nc1cccc(-c2nnc(-c3ccccc3)o2)c1)C1CCCCC1,"inconclusive: 2.91 µM [activator, partial curve, poor fit]"
4,O=S(=O)(NCCc1ccc2c(c1)OCCO2)c1cccs1,"inconclusive: 9.2 µM [activator, partial curve, poor fit]"
5,COc1ccccc1N1CCN(C(c2cccs2)C(C)NC(=O)C(=O)N2CCCCC2)CC1 (stereo unspecified),"inconclusive: 18.3 µM [activator, single point]"
6,COc1cc(C(=O)Nc2cc(Cl)ccc2-n2cncn2)ccc1OC(F)F,"inconclusive: 1.83 µM [activator, partial curve, poor fit]"
7,COc1ccc(O)c(/C=N/NC(=S)Nc2cccc(S(=O)(=O)N(C)C)c2)c1,"inconclusive: 2.06 µM [inhibitor, partial curve]"
8,COC(=O)c1[nH]c2ccc(C)cc2c1NC(=O)CN1CCCC(C)(C)C1,"inconclusive: 18.4 µM [inhibitor, single point]"
9,CO/N=C/C1CCN(c2ncc(C(F)(F)F)cc2Cl)C1=O (stereo unspecified),inactive
10,Cc1ccc(S(=O)(=O)NCCC(=O)NC2CCCCCC2)cc1C,inactive
11,O=C1CCCc2[nH]c(-c3ccccc3)nc21,"inconclusive: 16.4 µM [activator, partial curve, poor fit]"
12,CCOc1ccc(C(=O)NCC(=O)OCC(=O)Nc2ccccc2OC)cc1,inactive
13,COc1ccccc1C(=O)N1CCCC1(C#N)c1ccccc1 (stereo unspecified),inactive
14,Cc1nc2ccn(Cc3ccccc3)c(=O)c2cc1C(=O)N1CCN(c2ccccc2)CC1,active: 8.2 µM
15,CC(C)c1ccc(NC(=O)C2=NNC(=O)CC2)cc1,"inconclusive: 14.6 µM [activator, partial curve]"
16,O=C(/C=C/c1cn(-c2ccccc2)nc1-c1cccnc1)N1CCCC1,active: 13 µM
17,Cn1cc(C(=O)NCc2cccnc2)c(=O)c2cc(S(=O)(=O)N3CCCCCC3)ccc21,"inconclusive: 16.4 µM [inhibitor, single point]"
18,CC(NC(=O)c1ccccc1)c1nc2ccccc2n1Cc1ccccc1F (stereo unspecified),"inconclusive: 11.2 µM [inhibitor, partial curve, poor fit]"
19,COC(=O)c1ccccc1NC(=O)N1CCN(S(=O)(=O)c2ccc(Cl)cc2)CC1,inactive
20,CC(=O)c1ccc(NC(=O)c2cc(C)nc3ccccc23)cc1,"inconclusive: 20.6 µM [activator, single point]"
21,C=CCSc1nnc(NC(=O)CCN2C(=O)C3CC=CCC3C2=O)s1 (stereo unspecified),"inconclusive: 10.3 µM [activator, partial curve, poor fit]"
22,CC1CC(=O)Nc2ccccc2N1C(=O)Nc1ccc(F)cc1 (stereo unspecified),"inconclusive: 16.4 µM [inhibitor, partial curve, poor fit]"
23,COc1cc(/C=N/Nc2nc3ccccc3s2)cc([N+](=O)[O-])c1O,"inconclusive: 29.1 µM [activator, single point]"
